Test results taken from PubChem BioAssay AID1745850 (National Center for Advancing Translational Sciences (NCATS), 2022).
In all, about 2,100 compounds went through this assay and about 260 (12%) were called active. Inconclusive means that the source gave no clear call. Such entries were picked first, then a sample of the others. Calls come from the whole dose curve; as a rule, active = well fitted cell-killing curve with a large enough effect; inconclusive = small, poorly fitted or top-dose-only effect, or effect the other way; inactive = flat fitted curve, though single readings scatter. Potencies of inconclusive entries are doubtful fits and often do not repeat.

experiment: Viability Counterscreen for Confirmatory qHTS for Inhibitors of ATXN expression; settings: HEK-293 ATXN2-luc cells viability, CellTiter-Fluor, 24 h; activity change, negative = cytotoxicity: at 11.5 µM (top of the series) unless noted; note: nearly all actives have a fitted effect of over 50% in size
Method in brief: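 Luminescence read-out (SteadyGlo, 5 min) followed a 30 min Gly-Phe-AFC (25 uM final) viability fluorescence read. ATXN2-luciferase reporter cells were exposed 24 h to a dilution series. Medium-only wells served as the 100% inhibition reference.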
Potency is the fitted concentration of half-maximal effect.

| Compound | Potency | activity change, negative = cytotoxicity |
| --- | --- | --- |
| Cc1ccc(C2CC(=O)Nc3c2ccc2ccccc32)cc1[N+](=O)[O-] (centres undefined) | inconclusive: 31.6 µM [cytotoxic, single point] | – |
| CCN(CC)CCNC(=O)c1ccc(NC(=O)Cc2cccc3ccccc23)cc1 | – | inactive: -22.4% |
| C[n+]1c2cc(N)ccc2cc2ccc(N)cc21 | inconclusive: 28.2 µM [rising, partial curve] | – |
| O=C(NN=C1CCCC1)c1cc(-c2ccc(F)cc2)nc2ccccc12 | – | inactive: -13.9% [at 57.5 µM] |
| CCN(CC)CCNC(=O)C1CCN(S(=O)(=O)c2c(C)noc2/C=C/c2ccccc2F)CC1 | inconclusive: 8.91 µM [cytotoxic, single point] | – |
| CCOC(=O)C1CCN(c2cc3c(cc2NC(=O)c2ccccc2OCC)n(C)c(=O)n3C)CC1 | inconclusive: 39.8 µM [cytotoxic, single point] | – |
| Nc1nonc1-n1nnc(C(=O)N/N=C/c2ccccc2O)c1CN1CCCC1 | inconclusive: 17.8 µM [cytotoxic, partial curve] | – |
| CN(C)CCCNc1nc2cc(-c3ccc(F)cc3)sc2c(=O)n1C | inconclusive: 39.8 µM [cytotoxic, single point] | – |
| O=C(Nc1c(Cl)cccc1Cl)Oc1cccc2cccnc12 | – | inactive: -28% [at 57.5 µM] |
| O=C(c1ccc(S(=O)(=O)c2cccc(Cl)c2)c([N+](=O)[O-])c1)N1CCN(Cc2ccccc2)CC1 | inconclusive: 35.5 µM [cytotoxic, single point] | – |
| COc1ccc(C(=O)N/N=C/c2cc(Br)ccc2O)cc1OC | inconclusive: 11.2 µM [cytotoxic, partial curve] | – |
| Cc1ccc(CN(C)C(=O)CN2C(=O)NC(c3ccccc3)(c3ccccc3)C2=O)c(C)c1 | – | inactive: -19.4% |
| c1ccc(-c2cc3c(N4CCN(c5ccccc5)CC4)ncnc3s2)cc1 | inconclusive: 39.8 µM [cytotoxic, single point] | – |
| CC(C)(C)c1ccc(CC(=O)N2CCC2(C)C(=O)Nc2cnc3ccccc3c2)cc1 (centres undefined) | – | inactive: -23.1% |
| COc1ccc(C)cc1Nc1nc(N)c2cc(OC)c(OC)cc2n1 | inconclusive: 3.16 µM [cytotoxic, single point] | – |
| CC(NC1=CC(=O)c2cccnc2C1=O)C(O)c1ccccc1 (centres undefined) | active: 31.6 µM | – |
| CC1CCN(Cc2c(C(=O)N/N=C/c3cc(Cl)ccc3O)nnn2-c2nonc2N)CC1 | – | inactive: -9.41% |
| NC(Cc1ccc(F)cc1)c1csc(NC(=O)NC(c2ccccc2)c2ccccc2)n1 (centres undefined) | inconclusive: 31.6 µM [cytotoxic, single point] | – |
| Cc1cc(C)c2nc(N(CCCN(C)C)C(=O)c3ccc4c(c3)OCCO4)sc2c1 | inconclusive: 39.8 µM [cytotoxic, single point] | – |
| COc1ccc(/C=N/Nc2cc(N3CCCC3)nc(N3CCCC3)n2)cc1 | active: 3.16 µM | – |
| NC(=O)CC(NC(=O)Cc1ccc(Br)cc1)c1ccc(NC2CCCC2)c([N+](=O)[O-])c1 (centres undefined) | – | inactive: -17.4% |
| CCc1ccc(OCCNc2cc(N3CCNC(C)C3)ccc2[N+](=O)[O-])cc1 (centres undefined) | inconclusive: 39.8 µM [cytotoxic, single point] | – |
| COc1ccc(C(=O)c2c(C)c3ccccc3n2CC(O)CNC(C)C)cc1 (centres undefined) | inconclusive: 39.8 µM [cytotoxic, single point] | – |

A draw from above in order of length of the SMILES, largest number first.

| Compound | Potency | activity change, negative = cytotoxicity |
| --- | --- | --- |
| O=C(c1ccc(S(=O)(=O)c2cccc(Cl)c2)c([N+](=O)[O-])c1)N1CCN(Cc2ccccc2)CC1 | inconclusive: 35.5 µM [cytotoxic, single point] | – |
| CCN(CC)CCNC(=O)c1ccc(NC(=O)Cc2cccc3ccccc23)cc1 | – | inactive: -22.4% |
| COc1ccc(C)cc1Nc1nc(N)c2cc(OC)c(OC)cc2n1 | inconclusive: 3.16 µM [cytotoxic, single point] | – |
| C[n+]1c2cc(N)ccc2cc2ccc(N)cc21 | inconclusive: 28.2 µM [rising, partial curve] | – |

(list continues)

| Compound | Potency | activity change, negative = cytotoxicity |
| --- | --- | --- |
| O=C(CP(=O)(c1ccccc1)c1ccccc1)N/N=C/c1cc(Br)cc(Br)c1O | – | inactive: 1.93% |
| CCC(=O)OCCNc1cc(Sc2nc3ccccc3[nH]2)c2nonc2c1[N+](=O)[O-] | active: 3.16 µM | – |
| COc1ccc(C(=O)c2sc(Nc3ccccc3)nc2N)cc1OC | inconclusive: 22.4 µM [cytotoxic, single point] | – |
| N#CCc1nc2ccccc2c(=O)[nH]1 | – | inactive: -3.15% [at 57.5 µM] |
| Cc1nc(SCC(=O)Nc2ccc(S(=O)(=O)N3CCOCC3)cc2)c2c(C)c(C)sc2n1 | inconclusive: 3.98 µM [cytotoxic, full curve] | – |
| COc1ccc(/C(N)=N/OC(=O)N2CCOCC2)cc1 | – | inactive: -25.5% |
| OC[C@@H]1[C@@H](c2ccc(F)cc2)C(c2ccccc2)=NN1c1ccccc1 | – | inactive: 28.7% [at 57.5 µM] |
| Cc1ccc2nc3cc([N+](=O)[O-])cc([N+](=O)[O-])c3cc2c1 | active: 17.8 µM | – |
| O=C(NC(c1ccccc1)c1ccc2ccccc2n1)C1CCN(CCOc2ccc(Cl)cc2Cl)CC1 (centres undefined) | active: 25.1 µM | – |
| CN(C)CCNC(=O)c1cccc(-c2cnc3c(NC=O)cc(-c4cccs4)cn23)c1 | inconclusive: 39.8 µM [cytotoxic, single point] | – |
| O=C(CSc1n[nH]c(-c2ccccn2)n1)Nc1ccc(Cl)cc1 | inconclusive: 2.51 µM [cytotoxic, partial curve, poor fit] | – |
| C/C(=N\NC(=O)CN1CCCCC1)c1ccccc1O | – | inactive: -9.43% |
| CN(C)CCn1c2ccccc2c2nc3ccc([N+](=O)[O-])cc3cc21 | inconclusive: 11.2 µM [cytotoxic, partial curve] | – |
| COc1ccc(CSCC(=O)N/N=C/c2ccccc2O)cc1 | inconclusive: 28.2 µM [cytotoxic, single point] | – |
| CCc1nc2ccc(C(=O)Nc3cc(-c4ccccc4)ccc3OC)cn2c1N(CC)CC(=O)N(C)C | inconclusive: 31.6 µM [cytotoxic, single point] | – |
| CCCC(=O)NC(c1ccc(Cl)cc1Cl)c1ccc2cccnc2c1O (centres undefined) | inconclusive: 8.91 µM [cytotoxic, full curve] | – |
| O=C(N/N=C(\Cc1ncc[nH]1)c1ccccc1)c1ccncc1 | inconclusive: 35.5 µM [cytotoxic, single point] | – |
| Cn1nnnc1Sc1ncnc2scc(-c3ccc[nH]3)c12 | active: 12.6 µM | – |
| Cn1c(/C=C/c2ccc(Cl)cc2)c([N+](=O)[O-])c(=O)n(C)c1=O | active: 22.4 µM | – |
| Cc1cccc(N2CCN(C(=O)CC(NC(=O)c3ccccc3Cl)c3ccccc3)CC2)c1C (centres undefined) | inconclusive: 35.5 µM [cytotoxic, single point] | – |
| CCCNC(=O)c1ccc2c(=O)c(O)c(-c3ccc(C)cc3)[nH]c2c1 | – | inactive: -21.6% [at 57.5 µM] |
| O=C(Oc1c(CN2CCOCC2)cc(Cl)c2cccnc12)c1ccccc1 | inconclusive: 3.16 µM [cytotoxic, single point] | – |
| O=C(N/N=C/c1c(O)ccc2ccccc12)c1ccc(CO)nc1 | inconclusive: 11.2 µM [cytotoxic, partial curve, poor fit] | – |

| Compound | Potency | activity change, negative = cytotoxicity |
| --- | --- | --- |
| COc1ccccc1-c1cc2nc(-c3ccccc3)cc(N3CCN(C(=O)c4ccco4)CC3)n2n1 | inconclusive: 10 µM [cytotoxic, partial curve] | – |
| NC(c1ccccc1)c1csc(NC(=O)Nc2ccccc2Oc2ccccc2)n1 (centres undefined) | inconclusive: 7.08 µM [cytotoxic, single point] | – |
| Cc1cccc(NC(=O)CCC(=O)N/N=C/c2ccc(O)cc2O)c1 | – | inactive: -20.9% |
| Nc1ccc(OC(=O)Nc2ccc(O)cc2)cc1 | – | inactive: -23.8% [at 57.5 µM] |
| CCCCCn1c(CN2CCN(c3cccc(Cl)c3)CC2)nc2c1c(=O)[nH]c(=O)n2C | inconclusive: 39.8 µM [cytotoxic, single point] | – |
| CCOc1ccc(NC(=O)Nc2nnc(CC(=O)NCc3ccccc3)s2)cc1 | – | inactive: -28.5% [at 57.5 µM] |
| Cc1ccc2sc(N(CCCN(C)C)C(=O)c3ccc(S(=O)(=O)N4CCCCCC4)cc3)nc2c1C | inconclusive: 39.8 µM [cytotoxic, single point] | – |
| COc1cccc(C=NNC(=O)c2ccncc2)c1O | inconclusive: 22.4 µM [cytotoxic, partial curve] | – |
| O=C(Nc1cccc(S(=O)(=O)c2cccc(NC(=O)c3ccco3)c2)c1)c1ccco1 | inconclusive: 31.6 µM [cytotoxic, partial curve, poor fit] | – |
| O=C(CSC1=NNC(c2ccccn2)S1)Nc1ccc(C(F)(F)F)cc1 (centres undefined) | inconclusive: 31.6 µM [cytotoxic, partial curve, poor fit] | – |
| Cc1ccc(NC(=O)/C=C/c2ccc(S(=O)(=O)N3CCOCC3)cc2)cc1S(=O)(=O)N(C)C | inconclusive: 3.16 µM [cytotoxic, single point] | – |
| O=C(N/N=C/c1ccccc1O)C1CC(=O)N(c2ccc(Cl)cc2)C1 (centres undefined) | inconclusive: 3.98 µM [cytotoxic, partial curve, poor fit] | – |
| CC(C)(C)c1ccc(Oc2ccc(N)cn2)cc1 | – | inactive: -2.49% [at 57.5 µM] |
| Cc1cccc(C2=NN(c3ccccc3)[C@H](CO)[C@H]2c2ccc(Cl)cc2)c1 | inconclusive: 3.55 µM [rising, single point] | – |
| COc1ccc(OC)c(NC(=O)COC(=O)c2c3c(nc4ccccc24)CCCC3)c1 | inconclusive: 3.16 µM [cytotoxic, partial curve] | – |
| COc1ccc(CC(N)c2csc(NC(=O)c3ccccc3OC)n2)cc1 (centres undefined) | – | inactive: -15.7% [at 57.5 µM] |
| Cc1cnc(NC(=O)C2CC(=O)N(c3cccc(Cl)c3)C2)s1 (centres undefined) | – | inactive: -21% |
| COc1cc(OC)c(OC)cc1/C=C1\CC(C)C/C(=C\c2cc(OC)c(OC)cc2OC)C1=O (centres undefined) | active: 17.8 µM | – |
| CCC(=O)NC(c1ccc(OC)c(OC)c1)c1cc(Cl)c2cccnc2c1O (centres undefined) | inconclusive: 8.91 µM [cytotoxic, partial curve] | – |
| NC(Cc1ccc(Cl)cc1)c1csc(Nc2cc(NCCCO)ncn2)n1 (centres undefined) | inconclusive: 25.1 µM [cytotoxic, partial curve, poor fit] | – |
| CCc1ccc(N2CC(C(=O)N/N=C/c3cc([N+](=O)[O-])ccc3O)CC2=O)cc1 (centres undefined) | inconclusive: 25.1 µM [cytotoxic, partial curve] | – |
| Cc1nc2ccccc2n1C1CCN(CC(=O)Nc2ccccc2Br)CC1 | inconclusive: 2.82 µM [cytotoxic, partial curve] | – |
| O=c1cc(N2CCN(c3ccccc3)CC2)[nH]c(=O)n1C1CCCCC1 | – | inactive: -26.7% [at 57.5 µM] |
